Inconclusive results, whose numbers are uncertain, are shown with a selection of clear calls. Potencies beside an inconclusive call are fits to weak or partial responses and may not hold up. The source made the active and inactive calls. The call rests on the fitted dose curve; in most records, active means well fitted cell-killing curve with a large enough effect; inconclusive means small, poorly fitted or top-dose-only effect, or effect the other way; inactive means no such curve, though single readings can be large or run the other way.
System: C33A
Assay: Confirmatory qHTS for gynecologic anti-cancer compounds from libraries of approved drugs and bioactive compounds; further: nearly all actives have a fitted effect of over 55% in size
Conditions: gynecologic cancer cell panel viability, ATPlite luminescence, 48 h; series mostly up to 57.6 µM
Procedure, shortened: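 1,000 cells/well; 16 h pre-incubation 37 C, 5% CO2; pin-transferred cpd in DMSO, 11 conc (1:3), 57.5 uM–0.977 nM; 48 h; ATPlite, 15 min RT; luminescence → IC50.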
On the % scale 0 is the no-effect control and ±100 the full control effect; potency means the concentration at half of the fitted maximal effect.

Row | Compound | Potency | activity change, negative = viability loss
1 | CNc1nccc(-c2cccnc2Oc2cc(C(=O)Nc3cccc(C(F)(F)F)c3)ccc2C)n1 | inconclusive: 0.0097 µM [rising, partial curve, poor fit] | 
2 | CCn1cc(-c2ccnc3[nH]c(-c4cccc(CN(C)C)c4)cc23)c(-c2ccc(NC(=O)N(C)C)cc2)n1 | inconclusive: 10.6 µM [cytotoxic, partial curve, poor fit] | 
3 | COc1cc(Nc2ncc(F)c(Nc3ccc4c(n3)N(COP(=O)(O)O)C(=O)C(C)(C)O4)n2)cc(OC)c1OC | inconclusive: 3.06 µM [cytotoxic, full curve, poor fit] | 
4 | Cc1ccc(C(N)=O)cc1Nc1nccc(-c2cn(C(C)C)c3cnccc23)n1 | inconclusive: 21.7 µM [cytotoxic, single point] | 
5 | Cc1cc(Nc2cc(N3CCN(C)CC3)nc(/C=C/c3ccccc3)n2)n[nH]1 | active: 21.7 µM | 
6 | Cc1cnc(CNC(=O)c2c(=O)c3ccc(N4CCCN(C)CC4)nc3n3c2sc2ccccc23)cn1 |  | inactive: -18.8% [at 10.7 µM]
7 | CC(C)(C)C(=O)OCOP(=O)(COCCn1cnc2c(N)ncnc21)OCOC(=O)C(C)(C)C | inconclusive: 3.43 µM [cytotoxic, full curve] | 
8 | Nc1nc(=S)c2[nH]cnc2[nH]1 | inconclusive: 3.85 µM [cytotoxic, full curve] | 
9 | CC(C)[C@@H](CS(=O)(=O)C(C)C)N1C(=O)[C@@](C)(CC(=O)O)C[C@H](c2cccc(Cl)c2)[C@H]1c1ccc(Cl)cc1 | inactive | 
10 | Cc1nc(Nc2ncc(C(=O)Nc3c(C)cccc3Cl)s2)cc(N2CCN(CCO)CC2)n1 | inconclusive: 30.6 µM [cytotoxic, partial curve] | 
11 | CCOC(=O)C1=C(C)NC2=C(C(=O)CC(C)(C)C2)C1c1ccc(-c2ccccc2)cc1 (configuration not stated) | inconclusive: 27.3 µM [cytotoxic, single point] | 
12 | Nc1ccc(C(=O)Nc2cccc(-c3nc(N4CCOCC4)c4oc5ncccc5c4n3)c2)cn1 | inconclusive: 7.69 µM [cytotoxic, full curve] | 
13 | CC(C)C[C@H](NC(=O)[C@H](CCc1ccccc1)NC(=O)CN1CCOCC1)C(=O)N[C@@H](Cc1ccccc1)C(=O)N[C@@H](CC(C)C)C(=O)[C@@]1(C)CO1 | active: 6.11 µM | 
14 | c1cc(N[C@@H]2CCNC2)nc(-c2cnc3ccc(-c4cn[nH]c4)cn23)c1 | inconclusive: 4.85 µM [cytotoxic, full curve] | 
15 | N=C(N)c1ccc(OCCCCCOc2ccc(C(=N)N)cc2)cc1 | inactive | 
16 | Cc1cc(C(=O)N2CCN(c3cccc(Cl)c3)CC2)n(-c2ccccc2)n1 | inconclusive: 21.7 µM [cytotoxic, partial curve] | 
17 | CC[C@H](CC#N)OC(=O)N[C@@H](C)c1cccc(NC(=O)Nc2ccc(-c3cnco3)c(OC)c2)c1 | inconclusive: 1.37 µM [cytotoxic, full curve, poor fit] | 
18 | COc1ccc(-c2cc3nccn3c(Nc3ncccc3C(N)=O)n2)cc1OC | inconclusive: 17.2 µM [cytotoxic, partial curve, poor fit] | 
19 | CC(C)n1c(/C=C/[C@@H](O)C[C@@H](O)CC(=O)O)c(-c2ccc(F)cc2)c2ccccc21 | inconclusive: 5.44 µM [cytotoxic, full curve] | 
20 | COc1cc2c(Oc3ccc(-c4cnc(Nc5ccc(F)cc5)n(C)c4=O)cc3F)ccnc2cc1OCCCN1CCOCC1 | inactive | 
21 | Cc1nc(NC(=O)N2CCCC2C(N)=O)sc1-c1ccnc(C(C)(C)C(F)(F)F)c1 (configuration not stated) | inconclusive: 9.68 µM [cytotoxic, full curve] | 
22 | Cc1ccc(-n2[nH]c(C)c(N=Nc3cccc(-c4cccc(C(=O)O)c4)c3O)c2=O)cc1C | inconclusive: 43.2 µM [cytotoxic, partial curve, poor fit] | 

5 of the compounds above, in markdown.

| Row | Compound | Potency | activity change, negative = viability loss |
| --- | --- | --- | --- |
| 15 | N=C(N)c1ccc(OCCCCCOc2ccc(C(=N)N)cc2)cc1 | inactive |  |
| 16 | Cc1cc(C(=O)N2CCN(c3cccc(Cl)c3)CC2)n(-c2ccccc2)n1 | inconclusive: 21.7 µM [cytotoxic, partial curve] |  |
| 17 | CC[C@H](CC#N)OC(=O)N[C@@H](C)c1cccc(NC(=O)Nc2ccc(-c3cnco3)c(OC)c2)c1 | inconclusive: 1.37 µM [cytotoxic, full curve, poor fit] |  |
| 18 | COc1ccc(-c2cc3nccn3c(Nc3ncccc3C(N)=O)n2)cc1OC | inconclusive: 17.2 µM [cytotoxic, partial curve, poor fit] |  |
| 19 | CC(C)n1c(/C=C/[C@@H](O)C[C@@H](O)CC(=O)O)c(-c2ccc(F)cc2)c2ccccc21 | inconclusive: 5.44 µM [cytotoxic, full curve] |  |
